Changes are numbered by the printed parent chain. No constants are given. Whether binding was seen depends on the method and setting. A result given as binding can be weak or reduced; the word gives no strength. Values belong to the binder of their own block, whether it stands above or below them.
Tests used:
[1] = target: recombinant human ILT4 (LILRB2) (human); assay: SPR, Biacore 8K cross-reactivity study
[2] = target: recombinant human ILT4 (LILRB2) (human); assay: SPR

binding [1]: binds
B1: Hz77-LALA (antibody, human IgG1, kappa, L234A L235A, V domains shown)
VH: QVQLVQSGAEVKKPGSSVKVSCKASGYSFTGYSVNWVRQAPGQGLEWIGRINPYNGDIFNNQKFKGRATITVDKSTSTAYMELSSLRSEDTAVYYCARGTTVGGAWFAYWGQGTLVTVSS
VL: DIVMTQSPDSLAVSLGERATINCRASESVDSYGYSFLHWYQQKPGQPPKLLIYLASNLESGIPDRFSGSGSGTDFTLTISSLQAEDVAVYYCQQSNEDLMYTFGGGTKVEIKR

binding [2]: binds
binding [1]: binds
B2: Hz45.01-LALA (antibody, human IgG1, kappa, L234A L235A, V domains shown)
VH: QVQLVQSGAEVKKPGASVKVSCKASGYTFTDYYMNWVRQAPGQRLEWIGDINPNNGGTSYNQKFKGRATITVDTSASTAYMELSSLRSEDTAVYYCARGGAELTGTYWYFDVWGQGTTVTVSS
VL: DIQMTQSPSSLSASVGDRVTITCRASENIYSNLAWYQQKPGKAPKVLVYGATNLADGVPSRFSGSGSGTEYTLTISSLQPEDFATYYCQHFWDSPFTFGGGTKVEIKR

binding [2]: binds
binding [1]: binds
B3: Hz156.03-LALA (antibody, human IgG1, kappa, L234A L235A, V domains shown)
VH: QVQLVQSGAEVKKPGSSVKVSCKASGYTFTDYYMNWVRQAPGQGLEWIARIYPGVYRTHYNEKFKDRVTLTADKSTSTAYMELSSLRSEDTAVYYCARSGYYGGTYEEDAMDYWGQGTTVTVSS
VL: B2 VL with V46L, G50A, N53S, E70D, H90N, S94T, F96Y, G100Q

— patent publication US20260167714A1
